Measured values as given in PubChem BioAssay AID504834 (National Center for Advancing Translational Sciences (NCATS), 2011).
Screen size: about 320,000 compounds; about 22,000 (6.9%) were called active. Inconclusive results, whose numbers are uncertain, are shown with a selection of clear calls. The call rests on the fitted dose curve; in most records, active means well fitted inhibition curve with a large enough effect; inconclusive means small, poorly fitted or top-dose-only effect, or another doubt; inactive means no such curve, though single readings can be large or run the other way. A potency beside an inconclusive call is a rough fit, not a confirmed value.

assay: Primary qHTS for delayed death inhibitors of the malarial parasite plastid, 96 hour incubation; details: P. falciparum luciferase reporter growth; series mostly up to 28.7 µM
Summary of the method: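 Delayed-death screen, second-generation endpoint: infected erythrocytes, 2% hematocrit, 0.05% parasitemia final; 96 hours at 37 C, 5% CO2; luciferase detection reagent; luminescence decrease equals reduced growth.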
Potency means the concentration at half of the fitted maximal effect.

Row | Structure (SMILES) | Potency
1 | CCCCNC(=O)c1cc2cc(CC)ccc2[nH]1 | inconclusive: 18.5 µM [inhibitor, single point]
2 | O=C(NCc1ccccc1)c1cccc(S(=O)(=O)NCc2ccccc2)c1 | inconclusive: 11.7 µM [inhibitor, partial curve, poor fit]
3 | CC(NC(=O)c1ccc2c(=O)n3c(nc2c1)CCCCC3)c1ccccc1 (stereo not drawn) | inconclusive: 9.28 µM [inhibitor, partial curve]
4 | CCCCn1c(SCC(=O)N2CCCC2)nc2c1c(=O)n(C)c(=O)n2C | inconclusive: 9.28 µM [inhibitor, single point]
5 | COc1cccc(CN(C)C(=O)c2cccc(NC(=O)CC3SC(N4CCCCC4)=NC3=O)c2)c1OC (stereo not drawn) | active: 9.28 µM
6 | Cc1c(C(=O)NC(C)C)c(-c2ccccc2)nn1-c1ccccc1 | inactive
7 | Cc1sc(NC(=O)CSc2nnc(-c3ccccc3)o2)c(C#N)c1C | inactive
8 | COc1ccc(CCNC(=O)CSc2nnc(-c3ccccc3)c3ccccc23)cc1OC | inconclusive: 10.4 µM [inhibitor, partial curve, poor fit]
9 | C(#CCN1CCCC1)CN1CCCC1 | inconclusive: 2.33 µM [inhibitor, partial curve, poor fit]
10 | COc1ccc(N(CC(=O)N/N=C/c2ccc(OC3CSC3)cc2)S(=O)(=O)c2ccccc2)cc1 | inconclusive: 10.4 µM [inhibitor, single point]
11 | CCN(CC)c1ccc(/C=N/N2CCN(Cc3ccccc3Cl)CC2)c(O)c1 | inconclusive: 18.5 µM [inhibitor, single point]
12 | O=[N+]([O-])c1ccccc1S(=O)(=O)N1CCCc2ccccc21 | inconclusive: 18.5 µM [inhibitor, single point]
13 | CCOc1ccc(S(=O)(=O)N(CC(=O)N2CCc3ccccc32)Cc2ccco2)cc1 | inconclusive: 0.294 µM [inhibitor, full curve, poor fit]
14 | O=C(NNc1ccccc1F)c1ccccc1 | inactive
15 | O=C(N1CCOCC1)N1CCC(NC(=O)C23CC4CC(CC(C4)C2)C3)CC1 | inactive
16 | COCCNC(=O)C(=O)c1c(-c2ccccc2)[nH]c2ccccc12 | inconclusive: 18.5 µM [inhibitor, single point]
17 | CC(NC(c1ccccc1)c1ccccc1)C(=O)N1CCCc2ccccc21 (stereo not drawn) | active: 10.4 µM
18 | Cc1ccc(S(=O)(=O)CCC(=O)OCC(=O)N(Cc2ccccc2)C(C)C)cc1 | inactive
19 | COc1c(/C=C2\SC(=Nc3ccccc3Cl)NC2=O)cccc1[N+](=O)[O-] | inconclusive: 10.4 µM [inhibitor, single point]
20 | CCC(=NCc1cccnc1)c1c(O)n(Cc2ccccc2)c(=O)[nH]c1=O | inconclusive: 0.738 µM [inhibitor, partial curve, poor fit]
21 | CCc1ccccc1NC(=O)N[C@@H](C)C(=O)O | active: 9.28 µM
22 | CCN1CCCC1CNC(=O)C(=O)NC(C)c1ccccc1 (stereo not drawn) | active: 11.7 µM
23 | Cc1nn(C)c(C)c1NS(=O)(=O)c1ccccc1 | inconclusive: 18.5 µM [inhibitor, single point]

Row | Structure (SMILES) | Potency
24 | CCOC(=O)C1=C(CNCCc2ccc(Cl)cc2)NC(=O)NC1c1cccc([N+](=O)[O-])c1 (stereo not drawn) | inactive
25 | CC(=O)c1ccc(Cc2cnc(N)s2)cc1 | inconclusive: 18.5 µM [inhibitor, single point]
26 | CCOC(=O)N1CCN(Cc2nc3c(c(=O)n(C)c(=O)n3C)n2CCC(C)C)CC1 | inconclusive: 13.1 µM [inhibitor, partial curve]
27 | COc1cccc(OC(C)c2ccnc3nc(/N=C/N(C)C)nn23)c1 (stereo not drawn) | inconclusive: 10.4 µM [inhibitor, single point]
28 | C[C@H](NC(=O)COc1ccc(Cl)cc1)C(=O)N1CCC2(CC1)NCCc1[nH]cnc12 | inactive
29 | O=C(c1nc2ccc(Cl)cn2c1CN1CCCC(CO)C1)N1CCc2ccccc2C1 (stereo not drawn) | inconclusive: 5.22 µM [inhibitor, single point]
30 | COCCCn1c(N)c(C(=O)NCCC(C)C)c2nc3ccccc3nc21 | inconclusive: 11.7 µM [inhibitor, single point]
31 | O=C(CSc1ncccn1)N/N=C/c1ccccc1[N+](=O)[O-] | inactive
32 | COc1ccc(NC(=O)COc2ccc(CNCCCN3CCOCC3)cc2OC)cc1 | inconclusive: 4.15 µM [inhibitor, partial curve, poor fit]
33 | Cc1nn(CC(=O)NCCCN2CCN(C)CC2)c(=O)c2cc(-c3ccccc3)nn12 | inconclusive: 16.5 µM [inhibitor, partial curve, poor fit]
34 | CCN1CCN(C(=O)C2CCN(Cc3nc(-c4cccc(Cl)c4)oc3C)CC2)CC1 | inconclusive: 5.86 µM [inhibitor, partial curve, poor fit]
35 | Cc1cccc2cc(C(c3nnnn3Cc3ccccc3)N3CCCc4ccccc43)c(=O)[nH]c12 (stereo not drawn) | inconclusive: 2.94 µM [inhibitor, full curve]
36 | Cc1oc(CC(C)C)c(CN)c1C(=O)O | inactive
37 | CCCCN(C(=O)CSc1cc(C)c2ccc(OC)cc2n1)c1c(N)n(Cc2ccccc2)c(=O)[nH]c1=O | active: 11.7 µM
38 | COc1ccc(C2=NCC(=O)N(CC(=O)NCc3ccco3)c3sc4c(c32)CCCC4)cc1OC | inconclusive: 2.33 µM [inhibitor, full curve, poor fit]
39 | CCOc1cc(CNCCc2cccc(F)c2)ccc1OC | inconclusive: 11.7 µM [inhibitor, partial curve]
40 | CC(C)CCN1C(=O)C2(OCCCO2)c2cc(Cl)ccc21 | inconclusive: 8.28 µM [inhibitor, partial curve, poor fit]
41 | COc1ccccc1OCCn1cc(C=O)c2ccccc21 | inconclusive: 18.5 µM [inhibitor, single point]
42 | NC(=O)C(=CNc1nc(-c2ccc(Cl)c(Cl)c2)cs1)C(N)=O | inconclusive: 18.5 µM [inhibitor, single point]
43 | O=C(CN1CCN(c2ccccc2O)CC1)NC(=O)NC1CCCC1 | inconclusive: 2.33 µM [inhibitor, partial curve, poor fit]
44 | Cc1cccc(C(=O)N2CCN(S(=O)(=O)c3ccc4c(c3)OCCCO4)CC2)c1[N+](=O)[O-] | inconclusive: 18.5 µM [inhibitor, single point]
45 | CCC(=O)Nc1cc(-c2nc3ncccc3o2)ccc1Cl | inconclusive: 9.28 µM [inhibitor, single point]
46 | CCOc1ccc(CCNC(=O)C2CC(=O)N(c3ccccc3OCC)C2)cc1OCC (stereo not drawn) | inconclusive: 0.0465 µM [inhibitor, full curve, poor fit]

Row | Structure (SMILES) | Potency
47 | CCS(=O)(=O)Nc1cc2c3c(c1)CCC(=O)N3CCC2 | inconclusive: 18.5 µM [inhibitor, single point]
48 | CCOC(=O)Cn1c(=NC(=O)C(C)(C)C)sc2cc([N+](=O)[O-])ccc21 | inconclusive: 2.33 µM [inhibitor, single point]
49 | CCc1ccccc1NCC(=O)Nc1ccc(Cl)c(C(F)(F)F)c1 | inconclusive: 10.4 µM [inhibitor, single point]
50 | O=C(Nc1nnc(C2CC2)s1)c1cccnc1Oc1ccc(Cl)cc1 | inactive
51 | CC(C)Oc1cccc(C(=O)C2CCCN(C(=O)c3ccccn3)C2)c1 (stereo not drawn) | inconclusive: 13.1 µM [inhibitor, single point]
52 | COC(=O)C(C)Oc1cc(OC(C)C(=O)OC)c2c(-c3ccccc3)cc(=O)oc2c1 (stereo not drawn) | inconclusive: 5.22 µM [inhibitor, partial curve]
53 | Cc1ccc(NC(=O)CC(C)CC(=O)NCc2ccccc2)cc1Cl (stereo not drawn) | inconclusive: 18.5 µM [inhibitor, single point]
54 | COCCCn1c(SCc2ccccc2)nc2cc(OC)c(OC)cc2c1=N | inconclusive: 5.22 µM [inhibitor, partial curve, poor fit]
55 | O=C(NCCN=C1NS(=O)(=O)c2ccccc21)c1ccncc1 | inactive
56 | CCN(C(=O)c1ccccc1Cl)c1ccccc1 | inconclusive: 5.86 µM [inhibitor, partial curve, poor fit]
57 | COc1ccc(CN2C(=O)c3ccccc3C2C(=O)NC2CCC(C)CC2)c(OC)c1 (stereo not drawn) | inactive
58 | O=C1CC(c2ccccc2Cl)=NN(c2ncnc3ccccc23)C1=O | inactive
59 | O=C(Cc1ccc(Cl)cc1)NCCS(=O)c1ccc(Cl)cc1 (stereo not drawn) | active: 1.17 µM
60 | Cc1nn(S(=O)(=O)c2cccs2)c(C)c1Sc1ccccc1 | inconclusive: 3.29 µM [inhibitor, full curve, poor fit]
61 | CCCCNC(=O)NC12CC3CC(CC(C3)C1)C2 | inconclusive: 4.15 µM [inhibitor, single point]
62 | CC(C)Cc1ccc(C(=O)NCc2ccc3c(c2)OCO3)o1 | inconclusive: 9.28 µM [inhibitor, single point]
63 | COc1ccccc1-n1c(=O)c2c3c(sc2n2c(SC(C)C)nnc12)CCC3 | inconclusive: 4.65 µM [inhibitor, partial curve]
64 | COCCCN1C2=C(C(=O)CC(C)(C)C2)C(c2ccc(OC)c(OC)c2)C2=C1CC(C)(C)CC2=O | inconclusive: 18.5 µM [inhibitor, single point]
65 | COc1cc(N)c(C(O)c2nccc3cc(OC)c(OC)cc23)cc1OC (stereo not drawn) | inconclusive: 18.5 µM [inhibitor, single point]
66 | CC(=O)N(Cc1ccccc1)c1nc(-c2ccccc2)cs1 | inactive
67 | CN(C)c1c(F)cc(-c2nn[nH]n2)cc1F | inactive
68 | CCC1(c2ccccc2)C(=O)NC(=O)NC1=O | inconclusive: 4.26 µM [inhibitor, partial curve]

16 entries already listed, sorted by length of the SMILES, low to high.
Row | Structure (SMILES) | Potency
56 | CCN(C(=O)c1ccccc1Cl)c1ccccc1 | inconclusive: 5.86 µM [inhibitor, partial curve, poor fit]
68 | CCC1(c2ccccc2)C(=O)NC(=O)NC1=O | inconclusive: 4.26 µM [inhibitor, partial curve]
61 | CCCCNC(=O)NC12CC3CC(CC(C3)C1)C2 | inconclusive: 4.15 µM [inhibitor, single point]
66 | CC(=O)N(Cc1ccccc1)c1nc(-c2ccccc2)cs1 | inactive
47 | CCS(=O)(=O)Nc1cc2c3c(c1)CCC(=O)N3CCC2 | inconclusive: 18.5 µM [inhibitor, single point]
60 | Cc1nn(S(=O)(=O)c2cccs2)c(C)c1Sc1ccccc1 | inconclusive: 3.29 µM [inhibitor, full curve, poor fit]
55 | O=C(NCCN=C1NS(=O)(=O)c2ccccc21)c1ccncc1 | inactive
49 | CCc1ccccc1NCC(=O)Nc1ccc(Cl)c(C(F)(F)F)c1 | inconclusive: 10.4 µM [inhibitor, single point]
58 | O=C1CC(c2ccccc2Cl)=NN(c2ncnc3ccccc23)C1=O | inactive
65 | COc1cc(N)c(C(O)c2nccc3cc(OC)c(OC)cc23)cc1OC (stereo not drawn) | inconclusive: 18.5 µM [inhibitor, single point]
51 | CC(C)Oc1cccc(C(=O)C2CCCN(C(=O)c3ccccn3)C2)c1 (stereo not drawn) | inconclusive: 13.1 µM [inhibitor, single point]
46 | CCOc1ccc(CCNC(=O)C2CC(=O)N(c3ccccc3OCC)C2)cc1OCC (stereo not drawn) | inconclusive: 0.0465 µM [inhibitor, full curve, poor fit]
57 | COc1ccc(CN2C(=O)c3ccccc3C2C(=O)NC2CCC(C)CC2)c(OC)c1 (stereo not drawn) | inactive
48 | CCOC(=O)Cn1c(=NC(=O)C(C)(C)C)sc2cc([N+](=O)[O-])ccc21 | inconclusive: 2.33 µM [inhibitor, single point]
52 | COC(=O)C(C)Oc1cc(OC(C)C(=O)OC)c2c(-c3ccccc3)cc(=O)oc2c1 (stereo not drawn) | inconclusive: 5.22 µM [inhibitor, partial curve]
64 | COCCCN1C2=C(C(=O)CC(C)(C)C2)C(c2ccc(OC)c(OC)c2)C2=C1CC(C)(C)CC2=O | inconclusive: 18.5 µM [inhibitor, single point]

Two entries drawn at random from the list so far, as already listed:
Row | Structure (SMILES) | Potency
59 | O=C(Cc1ccc(Cl)cc1)NCCS(=O)c1ccc(Cl)cc1 (stereo not drawn) | active: 1.17 µM
68 | CCC1(c2ccccc2)C(=O)NC(=O)NC1=O | inconclusive: 4.26 µM [inhibitor, partial curve]
